Experimental data as given in the supplement of paper PMC12819154, “High-throughput peptide-centric local stability assay extends protein–ligand identification to membrane proteins, tissues and bacteria” (Nature Structural & Molecular Biology, 2025).
This is one part of the list. Most values lie at the level of the controls, where differences are scatter.

The chains behind the UniProt entries cited, without tags or fusion partners. Where a name states a change or a piece, a line headed by the entry shows the natural chain unless it says otherwise.
UniProt Q8TD19: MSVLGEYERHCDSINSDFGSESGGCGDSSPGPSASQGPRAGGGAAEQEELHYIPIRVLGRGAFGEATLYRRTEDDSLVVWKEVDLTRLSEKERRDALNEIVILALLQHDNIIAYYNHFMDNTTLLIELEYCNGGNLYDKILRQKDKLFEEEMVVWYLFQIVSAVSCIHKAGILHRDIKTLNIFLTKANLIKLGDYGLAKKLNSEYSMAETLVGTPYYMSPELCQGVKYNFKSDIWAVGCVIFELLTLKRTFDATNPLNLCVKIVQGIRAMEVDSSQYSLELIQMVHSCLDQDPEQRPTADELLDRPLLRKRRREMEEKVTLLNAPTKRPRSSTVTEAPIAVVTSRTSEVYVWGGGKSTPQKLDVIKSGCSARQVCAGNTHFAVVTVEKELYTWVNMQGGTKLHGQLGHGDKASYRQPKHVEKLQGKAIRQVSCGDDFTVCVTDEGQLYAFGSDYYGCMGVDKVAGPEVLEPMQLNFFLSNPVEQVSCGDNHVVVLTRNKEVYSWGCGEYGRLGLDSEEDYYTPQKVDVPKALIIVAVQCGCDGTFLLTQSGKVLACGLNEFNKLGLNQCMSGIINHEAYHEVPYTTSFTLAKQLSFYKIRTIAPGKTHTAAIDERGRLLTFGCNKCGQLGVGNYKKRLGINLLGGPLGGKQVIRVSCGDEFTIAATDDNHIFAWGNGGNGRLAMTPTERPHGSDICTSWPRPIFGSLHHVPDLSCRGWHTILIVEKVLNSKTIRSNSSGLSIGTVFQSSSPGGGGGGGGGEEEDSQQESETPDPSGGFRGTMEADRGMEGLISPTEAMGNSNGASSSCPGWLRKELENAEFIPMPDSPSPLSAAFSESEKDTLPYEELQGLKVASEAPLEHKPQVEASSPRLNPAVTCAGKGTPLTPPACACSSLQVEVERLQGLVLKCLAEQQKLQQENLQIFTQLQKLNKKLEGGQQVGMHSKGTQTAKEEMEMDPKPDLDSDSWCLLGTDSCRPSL
UniProt Q8WUF5: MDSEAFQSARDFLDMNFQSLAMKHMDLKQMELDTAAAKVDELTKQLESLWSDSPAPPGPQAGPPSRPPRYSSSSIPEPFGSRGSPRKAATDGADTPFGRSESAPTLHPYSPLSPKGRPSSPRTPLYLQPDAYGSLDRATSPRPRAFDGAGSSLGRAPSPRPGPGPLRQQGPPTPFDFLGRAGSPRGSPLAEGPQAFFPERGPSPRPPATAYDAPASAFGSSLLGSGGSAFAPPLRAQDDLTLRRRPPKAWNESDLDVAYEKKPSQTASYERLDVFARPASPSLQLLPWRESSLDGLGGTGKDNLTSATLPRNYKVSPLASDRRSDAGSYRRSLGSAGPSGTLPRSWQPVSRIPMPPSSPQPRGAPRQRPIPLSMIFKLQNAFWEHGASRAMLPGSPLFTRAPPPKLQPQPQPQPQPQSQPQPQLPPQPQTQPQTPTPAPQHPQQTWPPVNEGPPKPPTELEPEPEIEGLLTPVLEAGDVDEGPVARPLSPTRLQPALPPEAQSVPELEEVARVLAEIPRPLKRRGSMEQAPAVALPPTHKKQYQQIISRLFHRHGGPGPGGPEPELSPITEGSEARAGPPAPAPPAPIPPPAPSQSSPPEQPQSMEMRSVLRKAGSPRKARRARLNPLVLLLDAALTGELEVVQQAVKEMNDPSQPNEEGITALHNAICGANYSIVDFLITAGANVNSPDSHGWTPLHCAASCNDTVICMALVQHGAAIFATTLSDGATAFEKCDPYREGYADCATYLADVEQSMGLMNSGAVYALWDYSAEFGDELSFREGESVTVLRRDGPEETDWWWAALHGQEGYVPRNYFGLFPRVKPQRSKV
UniProt Q8WVJ2: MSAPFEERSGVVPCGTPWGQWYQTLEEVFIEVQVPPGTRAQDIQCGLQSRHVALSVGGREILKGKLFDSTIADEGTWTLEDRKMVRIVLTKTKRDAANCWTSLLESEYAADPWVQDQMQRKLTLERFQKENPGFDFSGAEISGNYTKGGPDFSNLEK
UniProt Q8TCD6: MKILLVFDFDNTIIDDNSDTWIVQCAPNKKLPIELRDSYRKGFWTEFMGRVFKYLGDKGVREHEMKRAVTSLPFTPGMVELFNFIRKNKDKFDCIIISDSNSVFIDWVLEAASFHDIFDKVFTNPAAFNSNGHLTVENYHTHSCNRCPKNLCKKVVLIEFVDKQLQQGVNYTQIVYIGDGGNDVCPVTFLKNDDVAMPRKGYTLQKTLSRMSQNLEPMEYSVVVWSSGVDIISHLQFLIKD
UniProt Q8TBB5: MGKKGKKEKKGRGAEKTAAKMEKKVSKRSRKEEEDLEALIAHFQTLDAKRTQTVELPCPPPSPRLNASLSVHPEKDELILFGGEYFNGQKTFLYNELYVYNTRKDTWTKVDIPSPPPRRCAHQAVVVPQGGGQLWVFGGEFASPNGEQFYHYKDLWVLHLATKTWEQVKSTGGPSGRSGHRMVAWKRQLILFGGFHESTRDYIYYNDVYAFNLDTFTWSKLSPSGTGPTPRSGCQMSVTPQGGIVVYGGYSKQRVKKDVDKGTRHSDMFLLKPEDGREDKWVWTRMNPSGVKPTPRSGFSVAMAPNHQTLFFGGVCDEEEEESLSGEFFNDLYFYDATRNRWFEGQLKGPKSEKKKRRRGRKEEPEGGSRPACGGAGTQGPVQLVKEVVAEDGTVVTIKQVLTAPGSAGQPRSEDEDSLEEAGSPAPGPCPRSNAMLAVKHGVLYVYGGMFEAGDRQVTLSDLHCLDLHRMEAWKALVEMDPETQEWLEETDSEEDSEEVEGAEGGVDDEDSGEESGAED
UniProt Q8WVN8: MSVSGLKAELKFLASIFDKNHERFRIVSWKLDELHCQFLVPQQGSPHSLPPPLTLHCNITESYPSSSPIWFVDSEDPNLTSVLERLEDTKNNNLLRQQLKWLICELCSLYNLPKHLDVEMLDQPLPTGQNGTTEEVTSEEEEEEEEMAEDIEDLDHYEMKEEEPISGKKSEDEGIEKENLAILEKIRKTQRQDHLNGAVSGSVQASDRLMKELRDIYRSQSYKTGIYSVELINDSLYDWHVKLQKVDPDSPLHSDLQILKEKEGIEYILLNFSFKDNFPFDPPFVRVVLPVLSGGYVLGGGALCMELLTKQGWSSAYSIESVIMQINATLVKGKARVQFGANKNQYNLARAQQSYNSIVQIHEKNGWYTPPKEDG
UniProt Q8WZ73: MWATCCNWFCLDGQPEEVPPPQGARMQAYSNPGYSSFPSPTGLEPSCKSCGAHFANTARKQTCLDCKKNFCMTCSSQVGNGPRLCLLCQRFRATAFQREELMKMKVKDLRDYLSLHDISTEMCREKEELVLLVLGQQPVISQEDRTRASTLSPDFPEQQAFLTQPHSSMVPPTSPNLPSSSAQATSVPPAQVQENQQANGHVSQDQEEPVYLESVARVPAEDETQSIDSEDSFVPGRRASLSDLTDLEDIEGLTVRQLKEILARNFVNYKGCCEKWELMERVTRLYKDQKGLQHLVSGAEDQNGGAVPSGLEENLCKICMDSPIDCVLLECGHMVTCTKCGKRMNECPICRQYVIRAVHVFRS
UniProt Q8TA94: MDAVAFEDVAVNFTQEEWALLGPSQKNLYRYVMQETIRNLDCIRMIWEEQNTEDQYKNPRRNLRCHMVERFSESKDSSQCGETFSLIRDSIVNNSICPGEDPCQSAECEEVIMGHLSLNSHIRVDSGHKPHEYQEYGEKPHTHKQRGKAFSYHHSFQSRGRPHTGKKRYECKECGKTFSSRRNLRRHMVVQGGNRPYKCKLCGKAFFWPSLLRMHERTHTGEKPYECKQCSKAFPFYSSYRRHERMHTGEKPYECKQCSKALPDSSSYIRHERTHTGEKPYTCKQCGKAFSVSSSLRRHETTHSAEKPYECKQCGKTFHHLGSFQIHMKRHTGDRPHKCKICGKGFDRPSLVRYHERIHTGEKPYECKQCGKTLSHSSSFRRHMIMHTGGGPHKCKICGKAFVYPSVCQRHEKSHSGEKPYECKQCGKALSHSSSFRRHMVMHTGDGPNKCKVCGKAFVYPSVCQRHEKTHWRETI
UniProt Q8WVD5: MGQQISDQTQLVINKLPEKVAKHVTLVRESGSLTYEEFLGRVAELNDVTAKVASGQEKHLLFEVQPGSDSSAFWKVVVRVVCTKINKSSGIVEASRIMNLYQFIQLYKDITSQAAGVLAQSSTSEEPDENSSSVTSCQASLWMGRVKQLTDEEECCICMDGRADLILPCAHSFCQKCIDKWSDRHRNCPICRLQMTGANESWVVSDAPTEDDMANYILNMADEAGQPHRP
UniProt Q8TAB5: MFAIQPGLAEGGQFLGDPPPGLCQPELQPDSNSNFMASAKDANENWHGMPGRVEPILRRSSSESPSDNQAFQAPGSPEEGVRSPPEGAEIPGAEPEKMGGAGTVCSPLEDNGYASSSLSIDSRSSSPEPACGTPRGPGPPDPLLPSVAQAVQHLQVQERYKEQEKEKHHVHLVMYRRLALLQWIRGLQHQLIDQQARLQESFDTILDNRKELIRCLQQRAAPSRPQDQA
UniProt Q8WXH5: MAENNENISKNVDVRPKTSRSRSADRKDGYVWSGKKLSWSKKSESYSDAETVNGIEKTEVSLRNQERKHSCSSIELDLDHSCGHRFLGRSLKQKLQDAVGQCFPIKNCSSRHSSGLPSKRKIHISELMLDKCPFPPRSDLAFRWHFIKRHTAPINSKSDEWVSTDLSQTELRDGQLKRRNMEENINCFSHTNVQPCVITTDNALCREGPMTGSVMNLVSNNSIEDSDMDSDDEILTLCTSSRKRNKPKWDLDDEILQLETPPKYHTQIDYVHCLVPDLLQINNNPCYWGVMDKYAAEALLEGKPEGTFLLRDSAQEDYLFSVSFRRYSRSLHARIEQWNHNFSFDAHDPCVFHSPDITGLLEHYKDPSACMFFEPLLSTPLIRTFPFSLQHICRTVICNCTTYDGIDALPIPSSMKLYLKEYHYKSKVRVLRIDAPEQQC
UniProt Q8WYL5: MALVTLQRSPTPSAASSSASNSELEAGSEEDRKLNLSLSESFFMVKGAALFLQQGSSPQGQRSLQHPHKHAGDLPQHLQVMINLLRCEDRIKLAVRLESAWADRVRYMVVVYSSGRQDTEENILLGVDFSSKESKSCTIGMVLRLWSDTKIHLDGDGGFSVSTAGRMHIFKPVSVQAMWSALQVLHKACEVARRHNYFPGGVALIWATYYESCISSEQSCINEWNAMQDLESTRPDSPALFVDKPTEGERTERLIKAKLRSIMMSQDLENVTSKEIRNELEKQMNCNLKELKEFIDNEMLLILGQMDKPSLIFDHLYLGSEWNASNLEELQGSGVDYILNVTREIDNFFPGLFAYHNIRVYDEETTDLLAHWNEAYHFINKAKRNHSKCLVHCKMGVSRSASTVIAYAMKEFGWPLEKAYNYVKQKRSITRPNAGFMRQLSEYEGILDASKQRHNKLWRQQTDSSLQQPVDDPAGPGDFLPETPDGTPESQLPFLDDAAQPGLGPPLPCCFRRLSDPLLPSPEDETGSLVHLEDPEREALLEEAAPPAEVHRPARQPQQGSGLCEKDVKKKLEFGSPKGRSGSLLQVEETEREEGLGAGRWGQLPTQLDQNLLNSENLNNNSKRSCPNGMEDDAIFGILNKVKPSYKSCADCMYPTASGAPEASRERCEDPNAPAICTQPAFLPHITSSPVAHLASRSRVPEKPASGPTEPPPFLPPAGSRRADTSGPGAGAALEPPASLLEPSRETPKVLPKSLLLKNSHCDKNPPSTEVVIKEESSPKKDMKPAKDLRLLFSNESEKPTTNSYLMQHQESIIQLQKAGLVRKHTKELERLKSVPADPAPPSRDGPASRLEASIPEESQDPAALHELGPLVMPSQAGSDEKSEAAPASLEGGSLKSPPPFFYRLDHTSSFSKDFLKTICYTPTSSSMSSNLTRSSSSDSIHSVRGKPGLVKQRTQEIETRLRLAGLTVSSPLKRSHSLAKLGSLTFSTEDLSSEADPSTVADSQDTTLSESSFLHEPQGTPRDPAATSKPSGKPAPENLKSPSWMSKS

Each target was assayed with Cc1nc(Nc2ncc(C(=O)Nc3c(C)cccc3Cl)s2)cc(N2CCN(CCO)CC2)n1 [dasatinib] (assay: log2 fold change of tryptic peptide abundance, ligand vs vehicle (limited proteolysis) (log2 ratio); higher = more trypsin-susceptible (destabilized)). Conditions: ligand concentration: 5 uM; sample: K562 cleared lysate.

| Target | log2 fold change |
| --- | --- |
| NEK9 (peptide sequence: LHGQLGHGDK, peptide start residue: 402) (UniProt Q8TD19) | -0.552 |
| PPP1R13L (peptide sequence: AMLPGSPLFTR, peptide start residue: 390) (UniProt Q8WUF5) | -0.283 |
| NUDCD2 (peptide sequence: HVALSVGGR, peptide start residue: 51) (UniProt Q8WVJ2) | -0.114 |
| PHOSPHO2 (peptide sequence: GFWTEFMGR, peptide start residue: 42) (UniProt Q8TCD6) | -0.607 |
| KLHDC4 (peptide sequence: KEEPEGGSRPACGGAGTQGPVQLVK, peptide start residue: 362) (UniProt Q8TBB5) | 0.0836 |
| UBE2Q2 (peptide sequence: FLASIFDKNHER, peptide start residue: 12) (UniProt Q8WVN8) | 0.302 |
| MRPS27 (peptide sequence: EKEHYCLADLASLMDKTFER, peptide start residue: 44) (UniProt Q92552) | 0.387 |
| UniProt Q92616 (peptide sequence: VKPPKYLLDSCAPLLR, peptide start residue: 236) | -0.514 |
| DOT1L (peptide sequence: LSGLAAPDYTR, peptide start residue: 763) (UniProt Q8TEK3) | -0.747 |
| STARD8 (peptide sequence: SLSIESLCPEDGHR, peptide start residue: 233) (UniProt Q92502) | 0.332 |
| LNX1 (peptide sequence: HGQLEENDRVLAINGHDLR, peptide start residue: 420) (UniProt Q8TBB1) | 0.75 |
| UniProt Q8WZA9 (peptide sequence: AALQSQAEALR, peptide start residue: 166) | 0.149 |
| DTX3L (peptide sequence: GICVICMDTISNKK, peptide start residue: 559) (UniProt Q8TDB6) | -0.678 |
| LEO1 (peptide sequence: LTSDEEGEPSGK, peptide start residue: 628) (UniProt Q8WVC0) | -0.289 |
| RFFL (peptide sequence: GCCEKWELMER, peptide start residue: 271) (UniProt Q8WZ73) | -0.026 |
| FNIP1 (peptide sequence: EDIQNSSK, peptide start residue: 631) (UniProt Q8TF40) | 0.295 |
| UniProt Q8TA94 (peptide sequence: AFSYHHSFQSR, peptide start residue: 149) | -0.699 |
| PIK3R3 (peptide sequence: TAIEAFNETIK, peptide start residue: 479) (UniProt Q92569) | 0.0935 |
| TMEM263 (peptide sequence: VTGGIFSVTK, peptide start residue: 38) (UniProt Q8WUH6) | -0.151 |
| POC1B (peptide sequence: TPHPHEEKVETVEINPK, peptide start residue: 332) (UniProt Q8TC44) | 1.26 |
| RNF141 (peptide sequence: VAELNDVTAK, peptide start residue: 42) (UniProt Q8WVD5) | -0.105 |
| HM13 (peptide sequence: NASDMPETITSR, peptide start residue: 62) (UniProt Q8TCT9) | 0.0804 |
| UniProt Q8TAB5 (peptide sequence: SSSPEPACGTPR, peptide start residue: 124) | 0.0111 |
| UniProt Q8TCP9 (peptide sequence: VALSSCVPDWK, peptide start residue: 552) | -0.44 |
| UniProt Q8WXH5 (peptide sequence: PEGTFLLR, peptide start residue: 399) | -0.0659 |
| UniProt Q8WYL5 (peptide sequence: EIRNELEK, peptide start residue: 275) | -0.0986 |
